In the supplement of paper PMC12823440, “Inhibitors supercharge kinase turnover through native proteolytic circuits” (Nature, 2025):
The other results are listed elsewhere or left out. Hit calls seldom repeat between salt and free forms of one compound.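 In K562 cells expressing nanoluciferase-fused kinases, luminescence was recorded at 4 h intervals between 2 and 18 h, normalized as percent of control with DMSO at 100% and a positive control at 0%. A significant (2 sigma) signal drop marks a time point as decreased. The authors' rule for a hit is not shown and takes in more than the number of time points.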

The chains behind the UniProt entries cited, without tags or fusion partners.
UniProt P29317, whole entry: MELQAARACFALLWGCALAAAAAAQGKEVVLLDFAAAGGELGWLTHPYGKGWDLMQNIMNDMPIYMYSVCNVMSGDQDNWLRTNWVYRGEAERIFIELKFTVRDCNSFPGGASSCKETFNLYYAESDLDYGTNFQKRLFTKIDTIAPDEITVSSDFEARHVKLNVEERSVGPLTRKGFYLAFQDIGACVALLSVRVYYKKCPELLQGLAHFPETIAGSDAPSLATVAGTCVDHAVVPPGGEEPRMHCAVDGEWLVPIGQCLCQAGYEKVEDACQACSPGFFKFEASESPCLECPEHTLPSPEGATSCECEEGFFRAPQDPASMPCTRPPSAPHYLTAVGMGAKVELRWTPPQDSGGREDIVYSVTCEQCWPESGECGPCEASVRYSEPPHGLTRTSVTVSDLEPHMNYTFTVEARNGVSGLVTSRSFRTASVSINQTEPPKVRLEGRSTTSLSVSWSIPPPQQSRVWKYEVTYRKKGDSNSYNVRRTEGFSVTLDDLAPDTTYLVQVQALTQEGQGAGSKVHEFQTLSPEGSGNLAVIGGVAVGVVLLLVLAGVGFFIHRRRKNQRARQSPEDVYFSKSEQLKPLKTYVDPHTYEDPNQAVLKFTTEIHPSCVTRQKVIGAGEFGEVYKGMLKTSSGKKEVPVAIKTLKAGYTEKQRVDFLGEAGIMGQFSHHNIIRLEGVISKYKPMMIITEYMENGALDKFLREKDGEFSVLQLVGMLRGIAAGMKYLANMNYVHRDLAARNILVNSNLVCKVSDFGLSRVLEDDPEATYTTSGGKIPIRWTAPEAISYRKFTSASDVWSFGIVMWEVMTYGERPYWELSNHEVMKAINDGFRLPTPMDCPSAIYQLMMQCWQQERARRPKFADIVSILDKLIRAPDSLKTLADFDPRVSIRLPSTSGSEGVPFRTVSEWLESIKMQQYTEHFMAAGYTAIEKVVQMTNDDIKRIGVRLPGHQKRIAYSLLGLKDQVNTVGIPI
UniProt P21860, whole entry: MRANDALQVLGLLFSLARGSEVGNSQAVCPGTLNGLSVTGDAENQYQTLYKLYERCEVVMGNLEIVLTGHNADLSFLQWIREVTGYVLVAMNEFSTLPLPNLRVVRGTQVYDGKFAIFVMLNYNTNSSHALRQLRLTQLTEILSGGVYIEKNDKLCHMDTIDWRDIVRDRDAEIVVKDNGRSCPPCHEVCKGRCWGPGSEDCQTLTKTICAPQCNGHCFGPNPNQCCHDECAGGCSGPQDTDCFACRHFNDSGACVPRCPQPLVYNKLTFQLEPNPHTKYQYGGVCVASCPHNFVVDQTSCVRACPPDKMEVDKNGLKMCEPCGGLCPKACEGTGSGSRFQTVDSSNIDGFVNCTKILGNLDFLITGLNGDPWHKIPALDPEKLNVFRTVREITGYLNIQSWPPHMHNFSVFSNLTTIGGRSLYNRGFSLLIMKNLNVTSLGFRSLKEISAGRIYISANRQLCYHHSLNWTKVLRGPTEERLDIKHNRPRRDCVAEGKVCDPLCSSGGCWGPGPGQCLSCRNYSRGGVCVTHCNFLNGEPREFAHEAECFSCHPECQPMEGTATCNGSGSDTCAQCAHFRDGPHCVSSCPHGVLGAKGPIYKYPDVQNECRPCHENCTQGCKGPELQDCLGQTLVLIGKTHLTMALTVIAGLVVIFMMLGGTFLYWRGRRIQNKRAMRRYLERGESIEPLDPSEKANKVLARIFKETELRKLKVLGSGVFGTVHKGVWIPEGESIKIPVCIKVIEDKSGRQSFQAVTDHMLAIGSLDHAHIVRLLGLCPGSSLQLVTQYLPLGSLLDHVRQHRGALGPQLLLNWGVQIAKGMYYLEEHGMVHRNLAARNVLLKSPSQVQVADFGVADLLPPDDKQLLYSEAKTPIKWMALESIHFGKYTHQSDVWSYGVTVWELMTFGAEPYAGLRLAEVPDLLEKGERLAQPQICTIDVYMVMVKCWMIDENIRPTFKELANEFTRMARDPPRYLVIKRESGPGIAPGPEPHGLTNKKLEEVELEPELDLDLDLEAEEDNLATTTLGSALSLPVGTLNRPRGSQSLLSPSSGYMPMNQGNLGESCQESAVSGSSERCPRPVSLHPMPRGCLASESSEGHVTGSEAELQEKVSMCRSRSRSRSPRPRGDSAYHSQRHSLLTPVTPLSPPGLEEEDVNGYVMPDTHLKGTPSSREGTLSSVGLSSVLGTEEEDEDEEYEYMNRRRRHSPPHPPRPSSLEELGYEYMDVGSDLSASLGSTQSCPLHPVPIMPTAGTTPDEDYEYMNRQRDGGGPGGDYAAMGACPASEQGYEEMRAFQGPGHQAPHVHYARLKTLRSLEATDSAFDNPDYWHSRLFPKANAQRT
UniProt Q15303, whole entry R711C: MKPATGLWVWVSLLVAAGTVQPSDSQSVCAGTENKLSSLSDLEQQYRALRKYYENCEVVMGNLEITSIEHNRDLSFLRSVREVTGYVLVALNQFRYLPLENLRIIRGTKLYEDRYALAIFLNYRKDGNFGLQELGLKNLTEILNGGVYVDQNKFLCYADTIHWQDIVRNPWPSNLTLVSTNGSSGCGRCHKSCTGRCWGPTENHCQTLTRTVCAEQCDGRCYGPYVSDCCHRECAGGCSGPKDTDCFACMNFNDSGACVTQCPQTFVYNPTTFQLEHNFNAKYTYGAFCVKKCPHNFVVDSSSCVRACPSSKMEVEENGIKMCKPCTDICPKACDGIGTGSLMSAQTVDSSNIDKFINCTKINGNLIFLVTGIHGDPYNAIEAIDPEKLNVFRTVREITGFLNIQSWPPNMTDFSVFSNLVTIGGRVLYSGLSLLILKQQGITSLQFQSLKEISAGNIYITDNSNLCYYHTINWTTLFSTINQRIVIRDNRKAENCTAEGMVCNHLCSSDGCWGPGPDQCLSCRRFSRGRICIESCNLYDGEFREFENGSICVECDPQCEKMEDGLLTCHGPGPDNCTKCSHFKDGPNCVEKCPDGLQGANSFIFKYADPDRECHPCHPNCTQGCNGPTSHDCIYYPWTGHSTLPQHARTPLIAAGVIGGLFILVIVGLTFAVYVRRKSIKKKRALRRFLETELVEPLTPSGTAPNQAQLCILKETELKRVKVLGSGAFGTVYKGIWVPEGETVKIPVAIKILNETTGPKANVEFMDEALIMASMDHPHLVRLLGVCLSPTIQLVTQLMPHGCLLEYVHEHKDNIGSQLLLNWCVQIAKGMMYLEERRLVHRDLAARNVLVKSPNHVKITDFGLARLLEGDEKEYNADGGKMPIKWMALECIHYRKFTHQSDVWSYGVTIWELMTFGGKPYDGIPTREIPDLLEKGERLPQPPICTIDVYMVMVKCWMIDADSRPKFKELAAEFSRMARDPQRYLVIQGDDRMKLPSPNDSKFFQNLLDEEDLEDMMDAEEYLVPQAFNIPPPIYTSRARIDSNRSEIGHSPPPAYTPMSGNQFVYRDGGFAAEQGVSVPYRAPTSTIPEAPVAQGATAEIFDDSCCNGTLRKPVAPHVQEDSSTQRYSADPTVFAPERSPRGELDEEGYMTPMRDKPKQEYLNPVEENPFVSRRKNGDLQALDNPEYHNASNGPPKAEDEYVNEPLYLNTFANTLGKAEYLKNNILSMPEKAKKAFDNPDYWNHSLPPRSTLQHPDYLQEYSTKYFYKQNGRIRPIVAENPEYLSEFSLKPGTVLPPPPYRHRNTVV

Assays:
Test in all cases: kinase-Nluc reporter destabilization hit call (1 = scored as downregulated) (binary); higher = compound decreases kinase abundance
Conditions in all cases: K562; 2-18 h
[1] = target: EGFR (UniProt P00533)
[2] = target: EGFR_G719S (UniProt P00533)
[3] = target: EGFR_G719S_T790M (UniProt P00533)
[4] = target: EGFR_L718V (UniProt P00533)
[5] = target: EGFR_L858R (UniProt P00533)
[6] = target: EGFR_L861Q (UniProt P00533)
[7] = target: EGFR_T790M (UniProt P00533)
[8] = target: EPHA2 (UniProt P29317)
[9] = target: ERBB3 (UniProt P21860)
[10] = target: ERBB4_R711C (clone: ERBB4_mut) (UniProt Q15303)

Measured: kinase-Nluc reporter destabilization hit call

CC[C@@H](N)CNc1ccnc(-c2cc(-c3cnn(C)c3)ccc2O)n1 (2.5 µM)
inactive: [1] 0 | [2] 0 | [3] 0 | [4] 0 | [5] 0 | [6] 0 | [7] 0 | [8] 0 | [9] 0 | [10] 0

CCOc1ccccc1C=C1C(=O)Nc2ccccc21 (10 µM)
inactive: [1] 0 | [2] 0 | [3] 0 | [4] 0 | [5] 0 | [6] 0 | [7] 0 | [8] 0 | [9] 0 | [10] 0

CCCC(=O)Nc1nc2c(ncn2[C@@H]2O[C@@H]3COP(=O)(O)O[C@H]3[C@H]2OC(=O)CCC)c(=O)[nH]1 [Dibutyryl-cGMP (sodium)] (10 µM)
inactive: [1] 0 | [2] 0 | [3] 0 | [4] 0 | [5] 0 | [6] 0 | [7] 0 | [8] 0 | [9] 0 | [10] 0

CC(C)(O)[C@@H]1CC[C@](C)([C@H]2[C@@H](O)C[C@@]3(C)[C@@H]4C[C@H](O[C@@H]5O[C@H](CO)[C@@H](O)[C@H](O)[C@H]5O)[C@H]5C(C)(C)[C@@H](O[C@@H]6OC[C@@H](O)[C@H](O)[C@H]6O[C@@H]6O[C@H](CO)[C@@H](O)[C@H](O)[C@H]6O)CC[C@@]56C[C@@]46CC[C@]23C)O1 [Astragaloside VI] (10 µM)
inactive: [1] 0 | [2] 0 | [3] 0 | [4] 0 | [5] 0 | [6] 0 | [7] 0 | [8] 0 | [9] 0 | [10] 0

O[C@H]1CC[C@H](Nc2ncc3nc(Nc4c(F)cc(F)cc4F)n([C@H]4CCOC4)c3n2)CC1 [Tanzisertib] (10 µM)
inactive: [1] 0 | [2] 0 | [3] 0 | [4] 0 | [5] 0 | [6] 0 | [7] 0 | [8] 0 | [9] 0 | [10] 0

CC(=O)Nc1nc(C)c(-c2nc(N3CCCC(O)C3)no2)s1 (stereo not given) (10 µM)
inactive: [1] 0 | [2] 0 | [3] 0 | [4] 0 | [5] 0 | [6] 0 | [7] 0 | [8] 0 | [9] 0 | [10] 0

O=c1nc(N2CCOCC2)oc2c(-c3cccc4c3sc3ccccc34)cccc12 (10 µM)
inactive: [1] 0 | [2] 0 | [3] 0 | [4] 0 | [5] 0 | [6] 0 | [7] 0 | [8] 0 | [9] 0 | [10] 0

Nc1n[nH]c2cc(-c3ccc(=O)n(Cc4cccc(Cl)c4)c3)ccc12 (10 µM)
inactive: [1] 0 | [2] 0 | [3] 0 | [4] 0 | [5] 0 | [6] 0 | [7] 0 | [8] 0 | [9] 0 | [10] 0

CC(C)Oc1ccc(-c2cnc3c(-c4ccnc5ccccc45)cnn3c2)cc1 (10 µM)
inactive: [1] 0 | [2] 0 | [3] 0 | [4] 0 | [5] 0 | [6] 0 | [7] 0 | [8] 0 | [9] 0 | [10] 0

O=C1NC(=O)C(c2cnc3ccccn23)=C1c1cn2c3c(cc(F)cc13)CN(C(=O)N1CCCCC1)CC2 (2.5 µM)
inactive: [1] 0 | [2] 0 | [3] 0 | [4] 0 | [5] 0 | [6] 0 | [7] 0 | [8] 0 | [9] 0 | [10] 0

O=C1NC(=O)/C(=C/c2ccc(-c3ccc(F)cc3O)o2)S1 (10 µM)
inactive: [1] 0 | [2] 0 | [3] 0 | [4] 0 | [5] 0 | [6] 0 | [7] 0 | [8] 0 | [9] 0 | [10] 0

Structures shown so far with a carbonyl joined to an NH by a bond outside any ring, in the order listed:
CCCC(=O)Nc1nc2c(ncn2[C@@H]2O[C@@H]3COP(=O)(O)O[C@H]3[C@H]2OC(=O)CCC)c(=O)[nH]1 [Dibutyryl-cGMP (sodium)] (10 µM)
inactive: [1] 0 | [2] 0 | [3] 0 | [4] 0 | [5] 0 | [6] 0 | [7] 0 | [8] 0 | [9] 0 | [10] 0

CC(=O)Nc1nc(C)c(-c2nc(N3CCCC(O)C3)no2)s1 (stereo not given) (10 µM)
inactive: [1] 0 | [2] 0 | [3] 0 | [4] 0 | [5] 0 | [6] 0 | [7] 0 | [8] 0 | [9] 0 | [10] 0

Continuation:

CCN(C)C(=O)c1ccc2c(C(=Nc3ccc(CN4CCCCC4)cc3)c3ccccc3)c(O)[nH]c2c1 (2.5 µM)
inactive: [1] 0 | [2] 0 | [3] 0 | [4] 0 | [5] 0 | [6] 0 | [7] 0 | [8] 0 | [9] 0 | [10] 0

CN(C)c1ncnc2nc[nH]c12 [6-(Dimethylamino)purine] (10 µM)
inactive: [1] 0 | [2] 0 | [3] 0 | [4] 0 | [5] 0 | [6] 0 | [7] 0 | [8] 0 | [9] 0 | [10] 0

COc1c(C)c(C(=O)c2ccc(N)c(C(=O)O)c2)n2ccccc12 (10 µM)
inactive: [1] 0 | [2] 0 | [3] 0 | [4] 0 | [5] 0 | [6] 0 | [7] 0 | [8] 0 | [9] 0 | [10] 0

Nc1cc(C(F)F)c(-c2nc(N3C4CCC3COC4)nc(N3C4CCC3COC4)n2)cn1 (2.5 µM)
inactive: [1] 0 | [2] 0 | [3] 0 | [4] 0 | [5] 0 | [6] 0 | [7] 0 | [8] 0 | [9] 0 | [10] 0

COc1cc(-c2cc(-c3cc(OC)c(OC)c(OC)c3)cc(C(F)P(=O)(OCOC(=O)C(C)(C)C)OCOC(=O)C(C)(C)C)c2)cc(OC)c1OC (stereo not given) [Stafia-1-dipivaloyloxymethyl ester] (2.5 µM)
inactive: [1] 0 | [2] 0 | [3] 0 | [4] 0 | [5] 0 | [6] 0 | [7] 0 | [8] 0 | [9] 0 | [10] 0

COc1ccc(CCNc2ncc3c(=O)n(-c4cccc(F)c4)c(=O)[nH]c3n2)cc1OC (2 µM)
inactive: [1] 0 | [2] 0 | [3] 0 | [4] 0 | [5] 0 | [6] 0 | [7] 0 | [8] 0 | [9] 0 | [10] 0

COC(=O)N[C@@H](C)CNc1nccc(-c2cn(C(C)C)nc2-c2cc(Cl)cc(NS(C)(=O)=O)c2F)n1 [Encorafenib] (10 µM)
inactive: [1] 0 | [2] 0 | [3] 0 | [4] 0 | [5] 0 | [6] 0 | [7] 0 | [8] 0 | [9] 0 | [10] 0

O=c1[nH]ccc2cc(OC3CCNCC3)ccc12 (10 µM)
inactive: [1] 0 | [2] 0 | [3] 0 | [4] 0 | [5] 0 | [6] 0 | [7] 0 | [8] 0 | [9] 0 | [10] 0

C[C@@H]1CCc2ncc(F)cc2[C@H]2CCCN2c2ccn3ncc(c3n2)C(=O)N1 [Selitrectinib] (10 µM)
inactive: [1] 0 | [2] 0 | [3] 0 | [4] 0 | [5] 0 | [6] 0 | [7] 0 | [8] 0 | [9] 0 | [10] 0

Cc1ccc(-c2ccc3c(ccc4sc5c(c43)NC[C@@H](C)NC5=O)n2)cn1 (10 µM)
inactive: [1] 0 | [2] 0 | [3] 0 | [4] 0 | [5] 0 | [6] 0 | [7] 0 | [8] 0 | [9] 0 | [10] 0

Cc1cc(Nc2nc(N[C@@H](C)c3ncc(F)cn3)ncc2Cl)[nH]n1 (10 µM)
inactive: [1] 0 | [2] 0 | [3] 0 | [4] 0 | [5] 0 | [6] 0 | [7] 0 | [8] 0 | [9] 0 | [10] 0

COc1ccc2c(Oc3ccc(NC(=O)c4c(C)n(CC(C)(C)O)n(-c5ccccc5)c4=O)cc3F)ccnc2c1 (2.5 µM)
inactive: [1] 0 | [2] 0 | [3] 0 | [4] 0 | [5] 0 | [6] 0 | [7] 0 | [8] 0 | [9] 0 | [10] 0

N#C/C(=C\c1ccc2oc(=O)[nH]c2c1)C(=O)c1ccc(O)c(O)c1 (10 µM)
inactive: [1] 0 | [2] 0 | [3] 0 | [4] 0 | [5] 0 | [6] 0 | [7] 0 | [8] 0 | [9] 0 | [10] 0

Cc1cc(Nc2cc(CN3CCOCC3)c3nc(C)c(Cc4ccc(Cl)cc4F)n3n2)n[nH]1 [Gandotinib] (2.5 µM)
inactive: [1] 0 | [2] 0 | [3] 0 | [4] 0 | [5] 0 | [6] 0 | [7] 0 | [8] 0 | [9] 0 | [10] 0

Cc1cc2cc(Oc3ccnc(Nc4cccc(CS(=O)(=O)NCCN(C)C)c4)n3)ccc2[nH]1 [Sulfatinib] (10 µM)
inactive: [1] 0 | [2] 0 | [3] 0 | [4] 0 | [5] 0 | [6] 0 | [7] 0 | [8] 0 | [9] 0 | [10] 0
